PubChem BioAssay AID504784, Drosophila RNAi Screening Center, 2011
The deposit covers about 17,000 reagents; below is a random part of those that have a named target and a result. 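Each column is one replicate's B-score; the combined score over replicates was not deposited, so single values may mislead.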 The numbers tell different reagents against one gene apart. Names joined by + are all predicted targets of the reagent. Not all columns of the deposit are shown.

Assay: 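Genome-wide knock-down for genes giving too much or too little stored lipid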 (primary screen)
System: Drosophila Kc167 embryonic cells
Reagent: long dsRNA against Drosophila genes, about 250 ng dsRNA per well
Timing: 4 days
Challenge: cells fed 400 µM oleic acid bound to BSA
Detection: 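Cells imaged and segmented; ratio of lipid droplet area to nuclear area, log-transformed, then normalised as a B-score over the screen; higher means more stored lipid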
Scale: droplet/nuclear area B-score: higher = more stored lipid (overstorage)

droplet/nuclear area B-score, replicate 1, by target and reagent
Cdc42 (GeneID 32981): #1 0.423
CycD (GeneID 32551): #1 -0.343
Dera (GeneID 36358): #1 0.0937; #2 0.602
Ssdp (GeneID 42177): #1 -1.1
Pp1-Y2 (GeneID 3355173): #1 -0.363
sc (GeneID 30982): #1 -0.0273
CG13751 (GeneID 35879): #1 0.827
Exo84 (GeneID 43163): #1 -0.0575
CG5273 (GeneID 31021): #1 -0.174
CG7878 (GeneID 40959): #1 -0.367
mil (GeneID 43343): #1 -0.877
Tep2 (GeneID 34044): #1 0.0286; #2 0.311
CG31139 (GeneID 42698): #1 0.00998
Incenp (GeneID 35649): #1 0.636; #2 0.23
CG14868 (GeneID 41875): #1 -0.8
CG14408 (GeneID 32407): #1 -0.0187
CG2991 (GeneID 33488): #1 0.296
CG14767 (GeneID 50250): #1 -2.77
pon (GeneID 31394): #1 -0.472
gNacalpha (GeneID 33279): #1 -0.412
CG15306 (GeneID 31961): #1 -2.09; #2 0.133
kl-5 (retired record) (GeneID 3355175): #1 -1.01; #2 1.07; #3 0.34; #4 6.3
CG15878 (GeneID 38281): #1 0.237
Sfxn1-3 (GeneID 40552): #1 2.47
Lam (GeneID 33782): #1 0.452
Yod1 (GeneID 38603): #1 1.04
CG12782 (GeneID 37685): #1 2.06
CD98hc (GeneID 40941): #1 1.65
CG10209 (GeneID 36652): #1 -0.584
CG13031 (GeneID 39867): #1 -1.07
CG8136 (GeneID 41037): #1 -0.729
CG9215 (GeneID 32494): #1 1.03
Mfap1 (GeneID 38256): #1 -3.35
Rh4 + sina: #1 -0.265

Looked up above:
For “droplet/nuclear area B-score, replicate 1”, CG14868 (GeneID 41875) is entered as -0.8
Entry for Pp1-Y2 (GeneID 3355173) in “droplet/nuclear area B-score, replicate 1”: -0.363
For “droplet/nuclear area B-score, replicate 1”, Tep2 (GeneID 34044) #2 reads 0.311
Result for Lam (GeneID 33782) in “droplet/nuclear area B-score, replicate 1”: 0.452

The listing continues.
droplet/nuclear area B-score, replicate 1, by target and reagent
CG32267 (GeneID 317946): #1 -0.0749
PpD5 (GeneID 44148): #1 0.0666; #2 -0.731
Hk (GeneID 31955): #1 -1.02; #2 1.03; #3 1.8
nudC (GeneID 39879): #1 -1.83; #2 -1.53
E(bx) (GeneID 44811): #1 0.319; #2 -1.53; #3 1.06
CG6900 (retired record) (GeneID 32868): #1 1.86
CG18266 (GeneID 33792): #1 -1.59
mts (GeneID 45959): #1 -0.248
CG13671 (GeneID 38932): #1 -0.776
Dnaaf3 (GeneID 37125): #1 0.818
ninaD (GeneID 326160): #1 -0.000693
nes (GeneID 40093): #1 0.116
CG12111 (GeneID 31796): #1 -0.244
Spn27A (GeneID 45815): #1 -2.27
CG15784 (GeneID 31461): #1 -1.82
CAP (GeneID 36084): #1 -0.0486; #2 2.24; #3 -1.4; #4 -0.114
CG31689 (GeneID 326154): #1 1.67
CG9701 (GeneID 39872): #1 0.121
CG1494 (GeneID 33102): #1 0.517
byn (GeneID 39349): #1 -0.865
Snap24 (GeneID 41193): #1 -0.179
CG16711 (GeneID 39135): #1 -0.765
CG1671 (GeneID 36019): #1 0.926
Atg8b (GeneID 42132): #1 0.024
CG13590 (GeneID 37907): #1 -1.98
Gen (GeneID 38594): #1 -0.62
nompA (GeneID 45587): #1 -1.55
sona (GeneID 37762): #1 -1.01; #2 -0.0627; #3 2.58
ana1 (GeneID 42927): #1 -0.578; #2 1.85
CG9519 (GeneID 32415): #1 -1.31
